Measurements taken from paper PMC2791216, “Phosphorylation of S776 and 14-3-3 Binding Modulate Ataxin-1 Interaction with Splicing Factors” (PLoS ONE, 2009).
Results are given in words; binding and its absence hold for the method and conditions named. For some of these results: In cells and extracts the contact can be indirect. Some entries that bind do so weakly or less than the wild type.

Chains of the proteins cited; added tags and fusions are not shown.
UniProt P26369: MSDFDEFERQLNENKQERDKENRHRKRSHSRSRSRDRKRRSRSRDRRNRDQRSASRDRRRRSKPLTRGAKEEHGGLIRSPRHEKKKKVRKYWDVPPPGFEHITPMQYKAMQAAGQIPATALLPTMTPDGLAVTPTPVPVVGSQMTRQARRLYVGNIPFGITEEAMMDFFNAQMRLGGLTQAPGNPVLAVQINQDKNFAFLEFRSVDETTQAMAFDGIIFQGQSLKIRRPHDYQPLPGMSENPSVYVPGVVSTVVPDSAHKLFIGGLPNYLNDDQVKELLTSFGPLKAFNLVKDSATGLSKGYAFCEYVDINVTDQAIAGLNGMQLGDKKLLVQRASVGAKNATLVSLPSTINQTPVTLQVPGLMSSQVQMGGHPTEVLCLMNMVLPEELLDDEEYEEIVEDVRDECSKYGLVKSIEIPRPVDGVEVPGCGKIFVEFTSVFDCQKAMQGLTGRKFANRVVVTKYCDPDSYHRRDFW

What was measured:
[1] = molecular target: T1, endogenous Atx1 (mouse cerebellum) (mouse (endogenous in cerebellum)) (UniProt P54254); assay: co-IP; mouse cerebellum extracts; immunoprecipitated with anti-Atx1 (11NQ) or anti-U2AF65 antibodies, control anti-flag; blotted with anti-U2AF65 or anti-Atx1; TS buffer, 1.0% NP40, RNAse inhibitors
T1 sequence: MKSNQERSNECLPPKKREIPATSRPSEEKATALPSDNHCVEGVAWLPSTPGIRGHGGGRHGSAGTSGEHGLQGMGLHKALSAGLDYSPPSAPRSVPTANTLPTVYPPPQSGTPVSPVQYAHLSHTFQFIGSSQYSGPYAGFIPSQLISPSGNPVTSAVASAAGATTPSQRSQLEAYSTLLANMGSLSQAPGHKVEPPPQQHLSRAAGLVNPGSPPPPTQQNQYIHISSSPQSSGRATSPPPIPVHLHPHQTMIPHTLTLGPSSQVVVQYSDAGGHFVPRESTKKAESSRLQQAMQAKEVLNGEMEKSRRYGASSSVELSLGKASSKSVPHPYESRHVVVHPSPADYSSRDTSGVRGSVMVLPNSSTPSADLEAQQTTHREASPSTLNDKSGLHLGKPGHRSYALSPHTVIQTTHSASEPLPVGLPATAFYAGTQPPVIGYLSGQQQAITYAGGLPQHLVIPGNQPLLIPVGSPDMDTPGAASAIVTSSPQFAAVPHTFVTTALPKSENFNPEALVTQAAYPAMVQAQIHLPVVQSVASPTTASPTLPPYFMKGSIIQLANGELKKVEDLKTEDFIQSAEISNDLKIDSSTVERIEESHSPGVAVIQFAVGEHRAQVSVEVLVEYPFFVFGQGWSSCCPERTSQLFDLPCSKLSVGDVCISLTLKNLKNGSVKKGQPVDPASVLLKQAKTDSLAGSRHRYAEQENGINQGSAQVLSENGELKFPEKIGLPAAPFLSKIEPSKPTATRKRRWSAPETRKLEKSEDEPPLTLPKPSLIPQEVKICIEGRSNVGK

[2] = molecular target: endogenous U2AF65 (mouse cerebellum) (mouse (endogenous in cerebellum)) (UniProt P26369); assay: as above
14-3-3ζ [3] = molecular target: T2, 14-3-3ζ (UniProt P63104 1-245); assay: condition: 14-3-3ζ 0.012–0.037 mM, peptide 0.1–0.4 mM; ITC; 50 mM sodium phosphate buffer (pH 7.0), 150 mM NaCl, 5 mM DTT; 295 K; protein in the cell, peptide in the syringe; single-site model; averages of three measurements; both purified
T2 construct: 14-3-3 protein, isoform zeta; also called 14-3-3 isoform ζ
T2 sequence (looked up): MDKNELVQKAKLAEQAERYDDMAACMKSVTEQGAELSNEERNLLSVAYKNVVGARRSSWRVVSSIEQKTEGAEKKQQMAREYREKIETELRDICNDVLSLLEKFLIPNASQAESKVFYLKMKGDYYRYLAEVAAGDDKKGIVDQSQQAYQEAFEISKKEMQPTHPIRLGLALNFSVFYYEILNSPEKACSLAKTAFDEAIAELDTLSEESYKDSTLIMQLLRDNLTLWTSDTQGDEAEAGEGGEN

14-3-3ζ [4] = molecular target: T2, 14-3-3ζ; assay: ITC; 50 mM sodium phosphate buffer (pH 7.0), 150 mM NaCl, 5 mM DTT; 295 K; protein in the cell, peptide in the syringe; single-site model; averages of three measurements; both purified

Molecule: endogenous U2AF65 (mouse cerebellum) (from UniProt P26369 1-475)
- binding [1]: binds

B1: endogenous Atx1 (mouse cerebellum) (protein, UniProt P54254 1-791)
chain: T1 sequence
- binding [2]: binds

B2: Atx1_A_ULM_PE (peptide)
peptide: ATRKRRWAAPE
notes: also called S776A-mutated peptide; S776A mutant peptide; source: synthetic peptide; bought: Pepceuticals Limited
- binding (14-3-3ζ [3]): no binding

B3: Atx1_D_ULM_PE (peptide)
peptide: ATRKRRWDAPE
notes: also called S776D peptide; S776D mutant peptide; source: synthetic peptide; bought: Pepceuticals Limited
- binding (14-3-3ζ [4]): no binding (tested: 0.22 mM 14-3-3ζ)
